Measurements taken from paper PMC7819943, “Rice protein-binding microarrays: a tool to detect cis-acting elements near promoter regions in rice”.
The list shows a part of the results.

Amino acid sequences for entries named in this document (tags omitted).
UniProt Q0JBA9, entry or part of it: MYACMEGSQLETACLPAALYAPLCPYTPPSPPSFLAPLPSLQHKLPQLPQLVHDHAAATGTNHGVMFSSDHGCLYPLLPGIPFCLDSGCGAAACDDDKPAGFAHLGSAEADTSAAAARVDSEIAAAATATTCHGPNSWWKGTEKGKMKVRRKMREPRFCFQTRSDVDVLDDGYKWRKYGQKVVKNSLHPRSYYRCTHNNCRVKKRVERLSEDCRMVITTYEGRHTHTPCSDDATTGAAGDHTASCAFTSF

These sequences were tested against OsWRKY34 (Oryza sativa, UniProt Q0JBA9 1-250) (assay: protein-binding microarray (RPBM); PBS, 2% BSA, 51.3 ng/ul salmon testes DNA, 50 uM zinc acetate, 200 nM TF, 25 C, 1 h; high values mean tight binding). Details: protein: recombinant; tags: N-terminal polyhistidine and DsRed monomer fusion (pET32a); label: CyDye5-dUTP incorporated in the synthesized complementary strand; 3' TTTTT single-stranded linker to array surface; dsDNA, one strand shown.
Summary of the method: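 Binding signal is defined as the fluorescence intensity of each feature in arbitrary units, read on an Axon 4000B scanner. Transcription factors with N-terminal polyhistidine and DsRed fusions came from E. coli BL21-CodonPlus and were purified on Ni–NTA. They were incubated at 200 nM for 1 h at 25 °C on a custom Agilent array that had been made double-stranded with Cy5-dUTP, with 50 µM zinc acetate present, and the array was washed.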

| Sequence | binding signal |
| --- | --- |
| TTGGGTTTTTTTATCGTAAATTATTTTTCAGATTGTGCTTCGGAGTCACCTAGTGCAG | 8420 fluorescence intensity (a.u.) |
| TTATTCATACATGTCACTGCCAGGCTGCTGTCTACTTCTTCGGAGTCACCTAGTGCAG | 9530 fluorescence intensity (a.u.) |
| GTTTGTCAGTGACTTCTGCATGTGGCTGTGTTGTGCGACTCGGAGTCACCTAGTGCAG | 9380 fluorescence intensity (a.u.) |
| TTATCAAATTCCGATCAAATCATTCCTCGTCGGCGTCCATCGGAGTCACCTAGTGCAG | 8880 fluorescence intensity (a.u.) |
| GTTGGTTCAATGTGTATTCTTTCATTCTTGCACATATGCACGGAGTCACCTAGTGCAG | 8390 fluorescence intensity (a.u.) |
| TCATTTGATTTATTGTTAAATATATTTTTATGTATACATACGGAGTCACCTAGTGCAG | 8550 fluorescence intensity (a.u.) |
| GTAGGTTGGGGATGGGATGAGATGTGCAATCCCGGGAGAACGGAGTCACCTAGTGCAG | 9000 fluorescence intensity (a.u.) |
| CCACATATTACGGGACTATTTTCATCTGCTTTTTATTTATCGGAGTCACCTAGTGCAG | 10800 fluorescence intensity (a.u.) |
| ATCCAATCCCATCCATCCATCGCCTTCGCCTTCGTCGGGCCGGAGTCACCTAGTGCAG | 10900 fluorescence intensity (a.u.) |
| CCCTCTCGTCGACCATGAAAATTTTCCTTGTTGCCTGGTGCGGAGTCACCTAGTGCAG | 8780 fluorescence intensity (a.u.) |
| CTAAATCCTCGGGTCCACATGTCATACTCAGCCTCTTTACCGGAGTCACCTAGTGCAG | 11400 fluorescence intensity (a.u.) |
| TGTTATGCAAATGTGCAAATGCAAAAGTTGGCCGCAAGAACGGAGTCACCTAGTGCAG | 17600 fluorescence intensity (a.u.) |
| AAGTTCAGATGATGTTGCGAGGGTCCATTTTCAGCTTATACGGAGTCACCTAGTGCAG | 8510 fluorescence intensity (a.u.) |
| GGGGCGTTGGAGGTTTTGCTGCATGGCAGGCGCGTAATTTCGGAGTCACCTAGTGCAG | 9720 fluorescence intensity (a.u.) |
| GCCCACATGTCAGCCACACGCCACCTCGCACGTGCGTCACCGGAGTCACCTAGTGCAG | 8830 fluorescence intensity (a.u.) |
| CCTCCATCATGAGCTCCAATTAGCCGCACACCGATCCCCTCGGAGTCACCTAGTGCAG | 8300 fluorescence intensity (a.u.) |
| ACAGACCCGGAGGATTTTGATTAGTTCGTTTCCGCAGCCTCGGAGTCACCTAGTGCAG | 9430 fluorescence intensity (a.u.) |
| CCTCTATTACCGCCTGTCATCTGGGCCCACGCTAATACCGCGGAGTCACCTAGTGCAG | 13800 fluorescence intensity (a.u.) |
| CTTGGACATCACCTGCGTGTTTCGAATCAGCTCCGTCATGCGGAGTCACCTAGTGCAG | 8570 fluorescence intensity (a.u.) |
| CCTACTAGTTTCTTTCTTGTGTTCTTTGGAATTTTTTTGACGGAGTCACCTAGTGCAG | 8200 fluorescence intensity (a.u.) |
| GCCACTCCTGACGTCAGCGTTGACTCGGTCAAACCCATCGCGGAGTCACCTAGTGCAG | 19300 fluorescence intensity (a.u.) |

2 records drawn at random from those above:

| Sequence | binding signal |
| --- | --- |
| TCATTTGATTTATTGTTAAATATATTTTTATGTATACATACGGAGTCACCTAGTGCAG | 8550 fluorescence intensity (a.u.) |
| GTAGGTTGGGGATGGGATGAGATGTGCAATCCCGGGAGAACGGAGTCACCTAGTGCAG | 9000 fluorescence intensity (a.u.) |

(further entries)

| Sequence | binding signal |
| --- | --- |
| ATGTTCAGTAGTTAAAGAGGATACTGGCCACATGCTTGACCGGAGTCACCTAGTGCAG | 8790 fluorescence intensity (a.u.) |
| ACCGCTGTATACCCTCGAGCCCCGACAATGGAGATTTTTTCGGAGTCACCTAGTGCAG | 9380 fluorescence intensity (a.u.) |
| GTACACCGTCTTGTCGATCACGACCAAACCCCGGCCGCCTCGGAGTCACCTAGTGCAG | 8090 fluorescence intensity (a.u.) |
| CATCCTCTTTATTTGGATCTTGTGTTTGATGTGATGATGTCGGAGTCACCTAGTGCAG | 8540 fluorescence intensity (a.u.) |
| GTATTCTGATCATGCGGCTATCCTAGTACTCTCGAGCACCCGGAGTCACCTAGTGCAG | 8130 fluorescence intensity (a.u.) |
| CACTGATCACTTCATCCCATTAGCCATTAGCTGTTTCTCACGGAGTCACCTAGTGCAG | 8430 fluorescence intensity (a.u.) |
| GTCGTCAACAGGGAGGGAGGGGAGAAGAACCGGTGATGGACGGAGTCACCTAGTGCAG | 8540 fluorescence intensity (a.u.) |
| GTCTCTTCTCTTCTTCACTCCACTCCACTCCACTCCACTCCGGAGTCACCTAGTGCAG | 8360 fluorescence intensity (a.u.) |
| CTTTTGTGCCCTTGCTATACTTTCTAAAGCCTTGTACGTTCGGAGTCACCTAGTGCAG | 12000 fluorescence intensity (a.u.) |
| ATCACATCCACCCAAACTATCGCCCTCTGTCTCTCTCCCACGGAGTCACCTAGTGCAG | 9090 fluorescence intensity (a.u.) |
| GAGTTTTTACTTGTAACGTTTAACCACTCGTCTTATTCAACGGAGTCACCTAGTGCAG | 8380 fluorescence intensity (a.u.) |
| TTGTATGAACTGTTTATCTTTTGCTCTGTTTATGTGGACCCGGAGTCACCTAGTGCAG | 9170 fluorescence intensity (a.u.) |
| TTGGATTTGGGATTCTTCTCTTTCGTTTTCGTGTGTTTTTCGGAGTCACCTAGTGCAG | 8770 fluorescence intensity (a.u.) |
| TGTAGTAATTGGGTATCTTCATCATTTGTCCTAAAAAAGTCGGAGTCACCTAGTGCAG | 8080 fluorescence intensity (a.u.) |
| ATTTCAGCTCGAGCTGCCGCCACAGTTGTTGTTTGCGATGCGGAGTCACCTAGTGCAG | 9830 fluorescence intensity (a.u.) |
| TTTTTTCTGTTTGTCCTCCATATATGTCAGCTCTAAAAATCGGAGTCACCTAGTGCAG | 9300 fluorescence intensity (a.u.) |
| ATTACTCCATCCGTCCCCTGATATAAGAGGTTTTAATATTCGGAGTCACCTAGTGCAG | 10700 fluorescence intensity (a.u.) |
| GGATTAATTAGGCAAAAAACCGTTGACTCAGTCATCACACCGGAGTCACCTAGTGCAG | 9280 fluorescence intensity (a.u.) |
| CAGGTCAAACTCACACGCTGGCCCAGTTGCTCAGTTAACTCGGAGTCACCTAGTGCAG | 8280 fluorescence intensity (a.u.) |
| TGGCTACTAGTTCTCTCTTCAACCTTGTTTATCTTATCTACGGAGTCACCTAGTGCAG | 12800 fluorescence intensity (a.u.) |
| AATTCCTTCGTCGGCAGCGTGCATTCCTTGGTCTATCCTTCGGAGTCACCTAGTGCAG | 9550 fluorescence intensity (a.u.) |
